Primary screen of a compound library

Protein sequences, listed by entry. Tags and fused reporters are not part of them.
UniProt P9WPC5, whole entry: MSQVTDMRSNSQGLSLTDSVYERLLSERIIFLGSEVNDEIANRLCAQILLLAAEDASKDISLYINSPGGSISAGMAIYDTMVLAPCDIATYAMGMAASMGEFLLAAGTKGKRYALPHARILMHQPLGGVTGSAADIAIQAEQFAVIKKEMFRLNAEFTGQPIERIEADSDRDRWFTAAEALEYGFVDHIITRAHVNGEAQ
UniProt P9WPC3, whole entry partner: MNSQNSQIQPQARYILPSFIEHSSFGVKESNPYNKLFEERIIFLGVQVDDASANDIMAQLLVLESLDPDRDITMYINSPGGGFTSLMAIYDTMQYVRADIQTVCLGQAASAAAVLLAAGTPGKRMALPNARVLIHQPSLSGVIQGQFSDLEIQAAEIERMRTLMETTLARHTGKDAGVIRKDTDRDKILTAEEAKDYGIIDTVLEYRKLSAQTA

The values are deposited in ChEMBL (CHEMBL3988442, “University of Dundee, Small-Polar-MMV Screening Library” (2021)).

Toxoplasma: 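Assay of Toxoplasma gondii numbers, read through their beta-galactosidase reporter with a colour substrate. Tested at 10 µM. Higher reads as fewer parasites (inferred from which compounds were picked for retests). About 67,000 compounds were tested under these conditions; 0.38% (about 260) showed 50% or more at least once.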
ClpP1P2: 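ClpP1P2, Mycobacterium tuberculosis (UniProt P9WPC5 and UniProt P9WPC3). Protease assay of ClpP1P2, read by the AMC dye that it sets free. Tested at 50 µM. Higher reads as stronger inhibition, judged from the few compounds that gave an IC50. Most other retested compounds had strongly negative values. About 69,000 compounds were tested under these conditions; 0.015% (about 10) showed 50% or more at least once.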

The filed quantity is “Percent Effect” (%). How 0% and 100% were set is not recorded. Most values in the screen are low, and negative values occur. Compounds were drawn at random from those tested, without regard to their results. A dash means the value is not listed here; it may have been measured.

- Cc1ccc(NC(=O)Cc2c(C)nc3c(c2C)c(=O)[nH]n3C)cc1F : Toxoplasma: -10%; ClpP1P2: -5.671%
- O=C(O)C(F)(F)F.[H][C@@]12COC[C@]1(COCC(=O)N(C)C)CN(Cc1ccccc1)C2 : Toxoplasma: 15.89%
- c1cnc(N2CCC3(CCCN(CC4CC4)C3)CC2)nc1 : ClpP1P2: 2.696%
- [H][C@]12C[C@@H](CN3CCCC3)N(C(C)C)[C@@]1([H])CCN(Cc1cnn(C)c1)C2 : Toxoplasma: -6.436%
- COC(=O)c1sccc1S(=O)(=O)N1CCC(Oc2cccc(C)n2)CC1 : Toxoplasma: -11.54%; ClpP1P2: -6.905%
- Cn1cc(CN2CCC(CCC(=O)NC3CC3)CC2)cn1 : Toxoplasma: 10.95%; ClpP1P2: -1.854%
- CC(C)N(C)Cc1cnc2n1CCN(Cc1ccsc1)C2.O=C(O)C(F)(F)F.O=C(O)C(F)(F)F : Toxoplasma: -2.695%
- Cc1cc(S(=O)(=O)N(C)CC(N)=O)ccc1Br : Toxoplasma: 0.9091%; ClpP1P2: 5.927%
- O=C(O)C(F)(F)F.[H][C@@]12OCCN(C(=O)c3ccccc3C)[C@@]1([H])CC[C@H]2OCCN(C)C : Toxoplasma: 5.124%
- CCC[C@@H]1CN(Cc2ccc3c(c2)OCCO3)C[C@H]1C(=O)O : Toxoplasma: -19.14%; ClpP1P2: -8.215%
- CN(C)C(=O)N1CC2(CCNCC2)c2cc(F)ccc21.O=C(O)C(F)(F)F : Toxoplasma: -27.46%
- Cc1nc2c(N3CCN(Cc4ccccc4)CC3)nc(N)nc2n1C : Toxoplasma: 5.302%; ClpP1P2: -16.9%
- CCNc1ccnc(NCC2CNCCO2)n1 (stereo not shown) : Toxoplasma: -1.561%; ClpP1P2: 2.477%
- NS(=O)(=O)c1cnn(CCC(=O)N(C2CCCCC2)C2CC2)c1 : Toxoplasma: 1.04%; ClpP1P2: 0.8899%
- CNc1nc(C)c(C(=O)N2CCCCC2CN2CCCCCC2)s1 (stereo not shown) : Toxoplasma: -0.9429%; ClpP1P2: 11.86%
- CCCC1(NC(=O)C(c2ccc(F)cc2)N(C)C)CC1 (stereo not shown) : Toxoplasma: 9.681%; ClpP1P2: -3.811%
- CCS(=O)(=O)N1CCC2(CC1)CN(CC1CCOC1)c1ccccc12.O=C(O)C(F)(F)F (stereo not shown) : Toxoplasma: 6.11%
- CC(C)Cn1cc(NCc2cscn2)cn1 : Toxoplasma: 1.932%; ClpP1P2: 2.311%
- COc1cc(C2CC(=O)NCc3nc4sccn4c32)cc(OC)c1O (stereo not shown) : Toxoplasma: -10.57%; ClpP1P2: -21.23%
- O=C(O)C(F)(F)F.O=C(O)C(F)(F)F.O=C1NC2(CCN(Cc3ccoc3)CC2)CC1c1ccncc1 (stereo not shown) : Toxoplasma: -0.4162%
- Cc1c(CC(=O)N2CCSCC2)nnn1-c1cccc(Cl)c1 : Toxoplasma: 22.13%; ClpP1P2: -12.4%
- C=C(C)COc1cccc(C(=O)N(CC)Cc2nccn2C)c1 : Toxoplasma: 9.592%; ClpP1P2: -25.64%

3 of the entries, repeated:

SMILES	Toxoplasma	ClpP1P2
c1cnc(N2CCC3(CCCN(CC4CC4)C3)CC2)nc1	-	2.696%
Cn1cc(CN2CCC(CCC(=O)NC3CC3)CC2)cn1	10.95%	-1.854%
CCNc1ccnc(NCC2CNCCO2)n1 (stereo not shown)	-1.561%	2.477%